# No constants are given. Whether binding was seen depends on the method and setting. Binding seen in cells or lysates may run through a third protein. Some results given as binding are weak or reduced against the parent protein; the word gives no strength.
# By UniProt entry, the sequences of proteins in these tests, tags left out.
# UniProt Q8BTM8: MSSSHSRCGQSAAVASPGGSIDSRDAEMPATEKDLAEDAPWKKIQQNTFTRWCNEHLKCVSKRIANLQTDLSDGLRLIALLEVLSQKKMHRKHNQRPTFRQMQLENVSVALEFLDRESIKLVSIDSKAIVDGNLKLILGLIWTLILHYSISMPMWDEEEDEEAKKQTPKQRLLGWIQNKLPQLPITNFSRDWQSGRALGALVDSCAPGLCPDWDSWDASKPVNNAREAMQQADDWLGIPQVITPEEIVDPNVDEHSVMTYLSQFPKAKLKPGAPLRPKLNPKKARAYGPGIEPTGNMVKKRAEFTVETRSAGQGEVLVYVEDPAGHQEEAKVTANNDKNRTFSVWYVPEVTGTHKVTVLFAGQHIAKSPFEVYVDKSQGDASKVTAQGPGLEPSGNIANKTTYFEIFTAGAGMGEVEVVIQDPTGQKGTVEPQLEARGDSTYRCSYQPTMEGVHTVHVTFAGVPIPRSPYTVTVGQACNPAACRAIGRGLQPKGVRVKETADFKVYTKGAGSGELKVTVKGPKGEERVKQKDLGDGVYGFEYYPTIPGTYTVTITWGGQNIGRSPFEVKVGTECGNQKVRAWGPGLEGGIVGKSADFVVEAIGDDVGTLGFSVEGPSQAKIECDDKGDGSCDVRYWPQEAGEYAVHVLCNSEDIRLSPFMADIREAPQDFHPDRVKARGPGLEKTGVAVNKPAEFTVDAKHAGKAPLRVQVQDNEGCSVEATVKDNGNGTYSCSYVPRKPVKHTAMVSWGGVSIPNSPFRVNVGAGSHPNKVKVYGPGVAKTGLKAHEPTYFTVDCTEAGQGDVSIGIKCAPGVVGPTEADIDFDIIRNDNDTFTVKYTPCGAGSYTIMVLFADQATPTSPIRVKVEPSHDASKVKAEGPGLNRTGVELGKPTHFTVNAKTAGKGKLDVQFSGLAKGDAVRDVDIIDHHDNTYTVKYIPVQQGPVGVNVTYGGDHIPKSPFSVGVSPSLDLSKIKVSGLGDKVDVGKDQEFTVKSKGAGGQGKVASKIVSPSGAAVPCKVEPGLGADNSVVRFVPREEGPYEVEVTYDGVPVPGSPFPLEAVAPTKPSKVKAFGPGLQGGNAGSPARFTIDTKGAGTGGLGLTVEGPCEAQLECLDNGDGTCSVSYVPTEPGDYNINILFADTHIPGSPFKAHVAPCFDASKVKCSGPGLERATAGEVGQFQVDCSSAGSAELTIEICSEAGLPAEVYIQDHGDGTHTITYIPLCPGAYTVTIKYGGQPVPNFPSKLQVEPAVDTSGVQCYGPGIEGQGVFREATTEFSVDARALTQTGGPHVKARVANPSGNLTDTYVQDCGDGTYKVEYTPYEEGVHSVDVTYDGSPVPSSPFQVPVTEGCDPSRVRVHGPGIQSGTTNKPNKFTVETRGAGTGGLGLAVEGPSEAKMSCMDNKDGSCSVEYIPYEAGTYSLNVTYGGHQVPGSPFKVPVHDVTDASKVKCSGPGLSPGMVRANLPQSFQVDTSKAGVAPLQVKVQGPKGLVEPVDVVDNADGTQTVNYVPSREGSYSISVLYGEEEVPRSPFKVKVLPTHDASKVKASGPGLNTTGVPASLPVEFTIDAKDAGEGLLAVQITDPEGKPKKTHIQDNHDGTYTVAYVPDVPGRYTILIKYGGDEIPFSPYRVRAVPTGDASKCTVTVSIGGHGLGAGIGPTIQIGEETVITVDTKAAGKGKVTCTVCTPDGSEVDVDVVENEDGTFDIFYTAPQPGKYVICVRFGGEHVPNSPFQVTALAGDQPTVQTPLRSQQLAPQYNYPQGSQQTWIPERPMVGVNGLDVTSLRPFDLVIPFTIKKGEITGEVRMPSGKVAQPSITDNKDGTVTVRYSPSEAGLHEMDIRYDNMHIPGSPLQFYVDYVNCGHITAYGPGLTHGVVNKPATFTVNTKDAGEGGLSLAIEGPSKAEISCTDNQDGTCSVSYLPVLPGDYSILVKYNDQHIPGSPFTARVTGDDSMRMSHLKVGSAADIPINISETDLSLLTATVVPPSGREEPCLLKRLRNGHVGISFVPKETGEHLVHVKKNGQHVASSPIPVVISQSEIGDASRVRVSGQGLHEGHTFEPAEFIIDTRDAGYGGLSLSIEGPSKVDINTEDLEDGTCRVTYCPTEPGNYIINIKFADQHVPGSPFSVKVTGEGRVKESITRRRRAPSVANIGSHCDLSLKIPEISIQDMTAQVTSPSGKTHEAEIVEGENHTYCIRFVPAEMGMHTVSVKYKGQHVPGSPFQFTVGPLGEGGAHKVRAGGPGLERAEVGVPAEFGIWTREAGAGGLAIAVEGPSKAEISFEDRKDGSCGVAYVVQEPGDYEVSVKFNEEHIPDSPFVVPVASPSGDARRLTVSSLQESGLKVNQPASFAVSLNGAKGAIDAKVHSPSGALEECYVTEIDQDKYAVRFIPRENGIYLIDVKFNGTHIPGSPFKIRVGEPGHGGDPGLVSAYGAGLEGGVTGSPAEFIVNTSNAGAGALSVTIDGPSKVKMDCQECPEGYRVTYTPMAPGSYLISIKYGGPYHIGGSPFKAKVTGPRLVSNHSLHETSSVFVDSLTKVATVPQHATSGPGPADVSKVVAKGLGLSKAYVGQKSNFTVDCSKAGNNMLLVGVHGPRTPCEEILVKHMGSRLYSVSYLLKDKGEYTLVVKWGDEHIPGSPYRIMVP
# B1: Integrin beta 3 (endogenous, NIH3T3 fibroblasts) (receptor, UniProt O54890 26-787)
# chain: ESNICTTRGVNSCQQCLAVSPVCAWCSDETLSQGSPRCNLKENLLKDNCAPESIEFPVSEAQILEARPLSSKGSGSSAQITQVSPQRIALRLRPDDSKIFSLQVRQVEDYPVDIYYLMDLSFSMKDDLSSIQTLGTKLASQMRKLTSNLRIGFGAFVDKPVSPYMYISPPQAIKNPCYNMKNACLPMFGYKHVLTLTDQVSRFNEEVKKQSVSRNRDAPEGGFDAIMQATVCDEKIGWRNDASHLLVFTTDAKTHIALDGRLAGIVLPNDGHCHIGTDNHYSASTTMDYPSLGLMTEKLSQKNINLIFAVTENVVSLYQNYSELIPGTTVGVLSDDSSNVLQLIVDAYGKIRSKVELEVRDLPEELSLSFNATCLNNEVIPGLKSCVGLKIGDTVSFSIEAKVRGCPQEKEQSFTIKPVGFKDSLTVQVTFDCDCACQAFAQPSSPRCNNGNGTFECGVCRCDQGWLGSMCECSEEDYRPSQQEECSPKEGQPICSQRGECLCGQCVCHSSDFGKITGKYCECDDFSCVRYKGEMCSGHGQCNCGDCVCDSDWTGYYCNCTTRTDTCMSTNGLLCSGRGNCECGSCVCVQPGSYGDTCEKCPTCPDACSFKKECVECKKFNRGTLHEENTCSRYCRDDIEQVKELTDTGKNAVNCTYKNEDDCVVRFQYYEDTSGRAVLYVVEEPECPKGPDILVVLLSVMGAILLIGLATLLIWKLLITIHDRKEFAKFEEERARAKWDTANNPLYKEATSTFTNITYRGT
# Molecular target: Filamin A (endogenous, NIH3T3 fibroblasts) (mouse (endogenous in NIH3T3)) (UniProt Q8BTM8)
# Assay: co-IP; quiescent NIH3T3 cells untreated or treated 5 min with R1881 (1 pM or 10 nM); lysates immunoprecipitated with anti-FlnA antibody, immunoblot (Fig. 6C, Fig. S6)
binder,measurement,value
B1,binding,binds weakly
